Record: PubChem BioAssay AID1259254 (NCATS, 2017)

Aim: 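Finding genes that stop cells copying their DNA twice in one cycle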 (primary screen)
System: human HCT116 colorectal cancer cells
Knock-down reagent: single siRNA against human genes
Duration: 3 days
Detection: 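Imaged Hoechst DNA stain sorts each cell into a cycle phase by DNA amount; per plate, G2 fraction set to 0% for non-targeting and 100% for GMNN siRNA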
Scale: G2 robust z-score: higher = more G2 cells, more excess DNA replication
Call rule: 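An siRNA counts as active if its G2 robust z-score lies at least 5 MADs above the screen median; here such calls match roughly 38% of GMNN control or more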
In all, the deposit lists about 59,000 reagents; shown is a part drawn at random. About 1,550 of them (2.6%) were called active. 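G2 share is only a proxy for re-replication; each gene was hit by three separate siRNAs, and active genes were retested.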 Reagents against one gene are numbered here. Further read-outs or replicates are left out here. Not given: the amount of reagent.

Depletion of STOX1 (GeneID 219736) #1 came out at: G2 robust z-score -0.474; inactive.
After knock-down of STOX1 (GeneID 219736) #2 the results were G2 robust z-score 0.306; inactive.
After knock-down of STOX1 (GeneID 219736) #3, the screen gave G2 robust z-score 0.658; inactive.
Knock-down of LINC01144 (GeneID 400752) #1 resulted in: G2 robust z-score -0.304; inactive.
Depletion of LINC01144 (GeneID 400752) #2 gave: G2 robust z-score -0.76; inactive.
With knock-down of LINC01144 (GeneID 400752) #3, the screen gave G2 robust z-score 1.11; inactive.
Against TGM6 (GeneID 343641) #1, the values are G2 robust z-score -0.567; inactive.
After knock-down of TGM6 (GeneID 343641) #2, the record shows G2 robust z-score -0.442; inactive.
For TGM6 (GeneID 343641) #3, the values are G2 robust z-score -0.505; inactive.
Knock-down of SLC13A2 (GeneID 9058) #1 gave: G2 robust z-score -0.702; inactive.
SLC13A2 (GeneID 9058) #2 scored G2 robust z-score -0.0141; inactive.
For SLC13A2 (GeneID 9058) #3, the values are G2 robust z-score 0.946; inactive.
Depletion of TBC1D7 (GeneID 51256) #1 gave: G2 robust z-score -0.163; inactive.
With knock-down of TBC1D7 (GeneID 51256) #2 the results were G2 robust z-score -0.604; inactive.
TBC1D7 (GeneID 51256) #3 gave G2 robust z-score -0.175; inactive.

Quoted from the entries so far for reference:
STOX1 (GeneID 219736) #2 | G2 robust z-score = 0.306; outcome = inactive
STOX1 (GeneID 219736) #3 | G2 robust z-score = 0.658; outcome = inactive

Next entries follow:
Silencing of ABCB10 (GeneID 23456) #1 gave: G2 robust z-score 0.49; inactive.
For ABCB10 (GeneID 23456) #2 the deposit lists G2 robust z-score -0.867; inactive.
With knock-down of ABCB10 (GeneID 23456) #3, the record shows G2 robust z-score 0.231; inactive.
For ATP2B1 (GeneID 490) #1, the entry reads G2 robust z-score -1.41; inactive.
ATP2B1 (GeneID 490) #2 scored G2 robust z-score -1; inactive.
ATP2B1 (GeneID 490) #3 scored G2 robust z-score -0.858; inactive.
For EGFR (GeneID 1956) #1, the values are G2 robust z-score -0.512; inactive.
Depletion of EGFR (GeneID 1956) #2 gave: G2 robust z-score 0.552; inactive.
After knock-down of EGFR (GeneID 1956) #3, the screen gave G2 robust z-score -0.294; inactive.
